Only a part is listed here, and it is no random draw. The calls were merged from several studies; some rest on single wells. This is one part of the list.
Key:
Conditions in all cases: stereoisomer not certain
[1] = molecular target: T1, OR52N5 (Homo sapiens) (UniProt Q8NH56)
T1 sequence (whole entry): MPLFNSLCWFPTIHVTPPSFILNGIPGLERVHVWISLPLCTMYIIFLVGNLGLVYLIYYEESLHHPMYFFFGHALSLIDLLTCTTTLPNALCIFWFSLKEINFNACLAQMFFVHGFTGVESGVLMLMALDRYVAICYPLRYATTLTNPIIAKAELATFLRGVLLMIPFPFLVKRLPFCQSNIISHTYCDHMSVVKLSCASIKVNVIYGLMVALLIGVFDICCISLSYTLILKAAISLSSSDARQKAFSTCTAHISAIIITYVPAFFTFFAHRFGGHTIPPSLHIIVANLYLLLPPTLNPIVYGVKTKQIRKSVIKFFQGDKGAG
In short: (§1)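 Values were gathered from published papers (main text and supplementary material), with extra details requested from the original authors when needed, and checked for typos and inconsistencies. Each receptor–molecule pair is called responsive (active) if the original authors judged the measured signal statistically different from baseline, and non-responsive (inactive) otherwise. Assay methods varied by source, often transient mammalian cell-line luciferase assays. Recorded details include cell line, G-protein, co-transfected protein and tags.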

Amino acid sequences for entries named in this document (tags omitted). A change or cut given only in a name is not applied to a line headed by its entry.
UniProt Q8NGI0: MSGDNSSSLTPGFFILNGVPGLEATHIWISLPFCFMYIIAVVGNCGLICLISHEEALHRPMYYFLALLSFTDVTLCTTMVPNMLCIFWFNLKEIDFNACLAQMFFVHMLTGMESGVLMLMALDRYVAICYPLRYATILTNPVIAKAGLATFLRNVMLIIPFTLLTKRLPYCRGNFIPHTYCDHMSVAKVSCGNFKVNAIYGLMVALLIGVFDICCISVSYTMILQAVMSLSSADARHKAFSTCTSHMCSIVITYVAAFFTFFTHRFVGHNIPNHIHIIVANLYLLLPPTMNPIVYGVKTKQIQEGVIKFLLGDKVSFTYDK
UniProt Q8NGF1: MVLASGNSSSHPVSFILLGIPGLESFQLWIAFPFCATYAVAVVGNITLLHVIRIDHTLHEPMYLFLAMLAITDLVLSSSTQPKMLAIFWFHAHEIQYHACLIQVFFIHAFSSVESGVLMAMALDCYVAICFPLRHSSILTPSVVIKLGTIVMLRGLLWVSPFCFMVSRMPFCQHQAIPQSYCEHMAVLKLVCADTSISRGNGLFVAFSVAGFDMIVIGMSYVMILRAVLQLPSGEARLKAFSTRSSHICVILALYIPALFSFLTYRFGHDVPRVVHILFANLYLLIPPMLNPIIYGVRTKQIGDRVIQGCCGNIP

[2] = molecular target: T2, OR56A1 (Homo sapiens) (UniProt Q8NGH5)
T2 sequence (whole entry): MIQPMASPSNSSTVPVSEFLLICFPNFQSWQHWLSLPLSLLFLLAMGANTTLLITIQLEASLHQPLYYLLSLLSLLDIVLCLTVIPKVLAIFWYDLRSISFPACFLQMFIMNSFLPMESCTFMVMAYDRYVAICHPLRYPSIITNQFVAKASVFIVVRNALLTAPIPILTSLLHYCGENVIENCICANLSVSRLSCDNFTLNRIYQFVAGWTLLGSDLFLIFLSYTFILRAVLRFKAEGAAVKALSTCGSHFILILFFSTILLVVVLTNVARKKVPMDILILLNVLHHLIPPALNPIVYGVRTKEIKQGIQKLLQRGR
In short: as §1

[3] = molecular target: T3, OR56A4 (Homo sapiens) (UniProt Q8NGH8)
T3 sequence (whole entry): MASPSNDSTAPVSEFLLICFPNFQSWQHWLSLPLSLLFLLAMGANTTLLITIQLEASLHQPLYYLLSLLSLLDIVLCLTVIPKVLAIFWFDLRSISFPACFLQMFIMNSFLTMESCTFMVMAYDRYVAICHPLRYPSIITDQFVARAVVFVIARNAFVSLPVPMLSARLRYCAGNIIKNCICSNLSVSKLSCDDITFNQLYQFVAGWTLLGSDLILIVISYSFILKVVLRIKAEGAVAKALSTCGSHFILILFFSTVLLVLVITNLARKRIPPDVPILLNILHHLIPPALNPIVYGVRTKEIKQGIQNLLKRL
In short: as §1

[4] = molecular target: T4, OR56A5 (Homo sapiens) (UniProt P0C7T3)
T4 sequence (whole entry): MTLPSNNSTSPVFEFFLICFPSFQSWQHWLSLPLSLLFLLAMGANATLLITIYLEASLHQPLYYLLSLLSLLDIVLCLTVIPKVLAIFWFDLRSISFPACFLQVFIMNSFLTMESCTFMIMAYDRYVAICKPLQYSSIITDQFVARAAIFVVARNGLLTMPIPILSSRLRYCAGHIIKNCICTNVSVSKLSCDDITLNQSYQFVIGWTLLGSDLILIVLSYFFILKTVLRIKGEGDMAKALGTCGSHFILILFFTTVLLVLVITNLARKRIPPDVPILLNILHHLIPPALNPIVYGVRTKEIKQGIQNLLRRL
In short: as §1

[5] = tested on: T5, OR5A1
T5 sequence (whole entry): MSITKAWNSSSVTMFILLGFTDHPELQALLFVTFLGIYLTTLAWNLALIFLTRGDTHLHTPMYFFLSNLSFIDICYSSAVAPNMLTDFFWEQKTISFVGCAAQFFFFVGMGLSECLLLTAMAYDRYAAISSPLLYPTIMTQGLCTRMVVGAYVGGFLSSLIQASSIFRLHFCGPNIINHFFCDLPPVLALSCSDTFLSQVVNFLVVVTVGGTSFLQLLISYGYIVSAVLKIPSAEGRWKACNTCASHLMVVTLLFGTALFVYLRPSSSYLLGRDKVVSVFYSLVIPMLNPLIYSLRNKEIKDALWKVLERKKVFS
In short: as §1

[6] = tested on: T6, OR5A1; remark: listed apart in the source
T6 sequence (whole entry): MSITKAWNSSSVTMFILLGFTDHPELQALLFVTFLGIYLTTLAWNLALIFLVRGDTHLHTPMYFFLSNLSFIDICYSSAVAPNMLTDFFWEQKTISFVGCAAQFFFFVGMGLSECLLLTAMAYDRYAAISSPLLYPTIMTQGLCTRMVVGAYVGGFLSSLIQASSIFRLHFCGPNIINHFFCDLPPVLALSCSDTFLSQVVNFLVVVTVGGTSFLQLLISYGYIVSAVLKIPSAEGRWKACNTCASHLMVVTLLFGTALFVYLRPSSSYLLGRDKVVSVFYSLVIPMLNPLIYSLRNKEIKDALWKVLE
In short: as §1

[7] = tested on: T7, OR5A1; remark: listed apart in the source
T7 sequence (whole entry): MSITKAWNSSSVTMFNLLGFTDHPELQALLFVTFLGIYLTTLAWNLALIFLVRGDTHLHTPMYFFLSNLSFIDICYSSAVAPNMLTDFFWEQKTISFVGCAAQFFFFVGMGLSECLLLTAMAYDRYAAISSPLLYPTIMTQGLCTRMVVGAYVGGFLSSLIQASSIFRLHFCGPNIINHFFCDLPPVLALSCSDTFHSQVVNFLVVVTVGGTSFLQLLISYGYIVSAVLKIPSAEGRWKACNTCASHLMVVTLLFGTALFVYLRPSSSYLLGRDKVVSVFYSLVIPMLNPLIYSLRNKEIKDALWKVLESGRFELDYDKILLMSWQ
In short: as §1

[8] = molecular target: T8, OR5A2 (Homo sapiens) (UniProt Q8NGI9)
T8 sequence (whole entry): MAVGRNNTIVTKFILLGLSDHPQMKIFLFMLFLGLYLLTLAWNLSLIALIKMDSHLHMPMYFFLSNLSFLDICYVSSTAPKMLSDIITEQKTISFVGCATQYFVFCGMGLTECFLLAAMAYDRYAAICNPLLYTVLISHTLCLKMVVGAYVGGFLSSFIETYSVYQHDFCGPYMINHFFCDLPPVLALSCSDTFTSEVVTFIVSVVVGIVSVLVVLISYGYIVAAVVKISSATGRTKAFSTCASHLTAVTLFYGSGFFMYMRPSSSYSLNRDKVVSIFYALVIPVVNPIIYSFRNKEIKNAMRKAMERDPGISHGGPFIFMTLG
In short: as §1

[9] = molecular target: T9, OR5AC2 (Homo sapiens) (UniProt Q9NZP5)
T9 sequence (whole entry): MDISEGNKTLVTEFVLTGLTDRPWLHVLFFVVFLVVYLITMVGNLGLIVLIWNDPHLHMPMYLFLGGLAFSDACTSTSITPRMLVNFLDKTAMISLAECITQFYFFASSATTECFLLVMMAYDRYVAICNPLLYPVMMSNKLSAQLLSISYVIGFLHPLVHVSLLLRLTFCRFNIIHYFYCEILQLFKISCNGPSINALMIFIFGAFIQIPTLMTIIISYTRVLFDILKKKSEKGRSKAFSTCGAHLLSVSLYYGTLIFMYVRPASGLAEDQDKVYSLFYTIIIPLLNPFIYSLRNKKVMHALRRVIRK
In short: as §1

[10] = molecular target: T10, OR5AK2 (Homo sapiens) (UniProt Q8NH90)
T10 sequence (whole entry): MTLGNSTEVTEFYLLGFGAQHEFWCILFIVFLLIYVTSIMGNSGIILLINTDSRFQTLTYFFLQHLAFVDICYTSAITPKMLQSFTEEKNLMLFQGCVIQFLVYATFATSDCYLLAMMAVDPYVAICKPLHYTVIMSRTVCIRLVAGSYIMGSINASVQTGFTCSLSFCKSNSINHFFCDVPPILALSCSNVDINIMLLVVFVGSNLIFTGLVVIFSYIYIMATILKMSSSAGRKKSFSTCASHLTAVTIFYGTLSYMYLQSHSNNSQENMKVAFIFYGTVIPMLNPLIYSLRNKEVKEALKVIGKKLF
In short: as §1

[11] = molecular target: T11, OR52N1 (Homo sapiens) (UniProt Q8NH53)
T11 sequence (whole entry): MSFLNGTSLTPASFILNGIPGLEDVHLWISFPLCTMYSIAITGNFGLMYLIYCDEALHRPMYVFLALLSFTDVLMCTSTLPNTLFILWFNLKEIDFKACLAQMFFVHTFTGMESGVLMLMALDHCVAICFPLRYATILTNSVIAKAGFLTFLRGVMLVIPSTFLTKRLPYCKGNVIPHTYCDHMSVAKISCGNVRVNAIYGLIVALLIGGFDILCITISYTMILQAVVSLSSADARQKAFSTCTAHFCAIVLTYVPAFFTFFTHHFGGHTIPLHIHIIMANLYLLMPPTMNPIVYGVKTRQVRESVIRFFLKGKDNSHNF
In short: as §1

[12] = molecular target: OR52N2 (Homo sapiens) (UniProt Q8NGI0)
In short: as §1

[13] = molecular target: T12, OR52N4 (Homo sapiens) (UniProt Q8NGI2)
T12 sequence (whole entry): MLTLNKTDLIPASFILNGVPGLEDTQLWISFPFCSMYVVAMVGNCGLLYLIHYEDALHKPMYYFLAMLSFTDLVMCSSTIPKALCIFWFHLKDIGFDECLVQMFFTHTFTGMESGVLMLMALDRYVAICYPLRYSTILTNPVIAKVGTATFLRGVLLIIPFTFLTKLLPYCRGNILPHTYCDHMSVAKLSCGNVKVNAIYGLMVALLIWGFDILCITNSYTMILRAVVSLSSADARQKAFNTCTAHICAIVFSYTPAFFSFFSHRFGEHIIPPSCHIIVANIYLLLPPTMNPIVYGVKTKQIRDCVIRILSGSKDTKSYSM
In short: as §1

[14] = molecular target: OR52R1 (Homo sapiens) (UniProt Q8NGF1)
In short: as §1

[15] = molecular target: T13, OR52W1 (Homo sapiens) (UniProt Q6IF63)
T13 sequence (whole entry): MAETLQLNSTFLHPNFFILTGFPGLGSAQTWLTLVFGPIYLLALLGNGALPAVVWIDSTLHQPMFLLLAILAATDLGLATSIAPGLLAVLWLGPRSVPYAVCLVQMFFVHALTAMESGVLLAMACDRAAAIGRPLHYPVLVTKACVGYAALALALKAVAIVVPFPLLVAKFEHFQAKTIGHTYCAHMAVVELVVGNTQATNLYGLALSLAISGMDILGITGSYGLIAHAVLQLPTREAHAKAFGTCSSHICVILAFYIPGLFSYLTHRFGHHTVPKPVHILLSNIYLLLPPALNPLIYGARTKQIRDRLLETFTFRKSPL
In short: as §1

[16] = molecular target: T14, OR56A3 (Homo sapiens) (UniProt Q8NH54)
T14 sequence (whole entry): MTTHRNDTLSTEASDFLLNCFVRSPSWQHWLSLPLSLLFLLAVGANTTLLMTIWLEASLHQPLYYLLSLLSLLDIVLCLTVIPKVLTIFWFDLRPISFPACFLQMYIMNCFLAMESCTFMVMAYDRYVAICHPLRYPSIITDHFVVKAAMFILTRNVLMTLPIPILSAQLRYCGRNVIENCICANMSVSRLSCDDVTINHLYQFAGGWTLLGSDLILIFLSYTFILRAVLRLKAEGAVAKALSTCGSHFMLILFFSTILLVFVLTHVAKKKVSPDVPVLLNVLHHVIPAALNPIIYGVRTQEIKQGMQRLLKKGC
In short: as §1

[17] = molecular target: T15, OR56B1 (Homo sapiens) (UniProt Q8NGI3)
T15 sequence (whole entry): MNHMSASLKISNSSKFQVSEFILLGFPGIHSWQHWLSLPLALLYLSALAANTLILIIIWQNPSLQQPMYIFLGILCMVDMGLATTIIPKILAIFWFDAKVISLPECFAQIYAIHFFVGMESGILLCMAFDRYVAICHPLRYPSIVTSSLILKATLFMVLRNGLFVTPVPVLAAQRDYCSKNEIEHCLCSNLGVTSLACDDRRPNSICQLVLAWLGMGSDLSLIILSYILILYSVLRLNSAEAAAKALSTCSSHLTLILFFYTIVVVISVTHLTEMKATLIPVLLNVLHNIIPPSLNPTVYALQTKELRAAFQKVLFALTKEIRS
In short: as §1

[18] = molecular target: T16, OR56B4 (Homo sapiens) (UniProt Q8NH76)
T16 sequence (whole entry): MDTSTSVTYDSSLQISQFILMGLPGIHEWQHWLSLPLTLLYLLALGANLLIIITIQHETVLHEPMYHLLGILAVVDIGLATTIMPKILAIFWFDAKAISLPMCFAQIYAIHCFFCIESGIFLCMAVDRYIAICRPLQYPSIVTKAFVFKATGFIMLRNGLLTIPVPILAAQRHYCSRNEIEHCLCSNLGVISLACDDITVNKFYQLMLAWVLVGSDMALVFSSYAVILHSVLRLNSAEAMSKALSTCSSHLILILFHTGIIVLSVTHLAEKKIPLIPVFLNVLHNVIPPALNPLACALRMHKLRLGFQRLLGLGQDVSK
In short: as §1

Measured: odorant receptor agonist call

C=CC(C)(O)CCC=C(C)C (stereo not given)
inactive: [1] | [2] | [3] | [5] | [6] | [7] | [8] | [9] | [10]
active: [4]

CC12C=CCC1C1CCC3=CC(=O)CCC3(C)C1CC2 (stereo not given)
inactive: [1] | [2] | [3] | [4] | [5] | [6] | [7] | [8] | [10]

CC(=O)OC1CC2CCC1(C)C2(C)C (stereo not given)
active: [6]
inactive: [1] | [2] | [3] | [4] | [5] | [7] | [8] | [9] | [10]

CCCCCCCCCC=O
active: [1]
inactive: [2] | [3] | [4] | [5] | [6] | [7] | [8] | [10]

CCCC(=O)O
not listed: [9]
inactive: all other assays above
